{"sequences": {"note": "Amino acid sequences for entries named in this document (tags omitted). A change or cut given only in a name is not applied to a line headed by its entry.", "UniProt Q15545, whole entry": "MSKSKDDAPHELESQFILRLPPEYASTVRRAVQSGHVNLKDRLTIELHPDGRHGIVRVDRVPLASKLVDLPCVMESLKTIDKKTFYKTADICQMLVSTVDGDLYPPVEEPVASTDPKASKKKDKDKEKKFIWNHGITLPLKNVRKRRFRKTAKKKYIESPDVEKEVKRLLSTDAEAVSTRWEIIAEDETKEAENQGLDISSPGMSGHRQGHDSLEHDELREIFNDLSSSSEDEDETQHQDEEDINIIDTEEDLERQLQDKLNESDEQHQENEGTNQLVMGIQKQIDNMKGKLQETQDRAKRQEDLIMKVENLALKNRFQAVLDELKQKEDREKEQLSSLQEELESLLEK", "UniProt Q16850": "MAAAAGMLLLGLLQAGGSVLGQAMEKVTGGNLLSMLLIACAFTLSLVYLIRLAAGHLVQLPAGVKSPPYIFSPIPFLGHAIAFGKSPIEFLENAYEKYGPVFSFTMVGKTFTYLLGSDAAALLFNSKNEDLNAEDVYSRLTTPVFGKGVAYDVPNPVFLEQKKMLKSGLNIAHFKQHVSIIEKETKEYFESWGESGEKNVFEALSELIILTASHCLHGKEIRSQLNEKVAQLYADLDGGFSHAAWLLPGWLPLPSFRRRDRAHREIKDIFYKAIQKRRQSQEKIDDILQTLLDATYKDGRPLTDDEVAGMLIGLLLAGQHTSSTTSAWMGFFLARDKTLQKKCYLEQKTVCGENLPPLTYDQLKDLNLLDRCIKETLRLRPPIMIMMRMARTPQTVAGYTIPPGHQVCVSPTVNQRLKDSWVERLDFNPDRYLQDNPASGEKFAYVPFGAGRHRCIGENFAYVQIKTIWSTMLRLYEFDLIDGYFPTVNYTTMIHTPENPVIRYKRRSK", "UniProt Q15051": "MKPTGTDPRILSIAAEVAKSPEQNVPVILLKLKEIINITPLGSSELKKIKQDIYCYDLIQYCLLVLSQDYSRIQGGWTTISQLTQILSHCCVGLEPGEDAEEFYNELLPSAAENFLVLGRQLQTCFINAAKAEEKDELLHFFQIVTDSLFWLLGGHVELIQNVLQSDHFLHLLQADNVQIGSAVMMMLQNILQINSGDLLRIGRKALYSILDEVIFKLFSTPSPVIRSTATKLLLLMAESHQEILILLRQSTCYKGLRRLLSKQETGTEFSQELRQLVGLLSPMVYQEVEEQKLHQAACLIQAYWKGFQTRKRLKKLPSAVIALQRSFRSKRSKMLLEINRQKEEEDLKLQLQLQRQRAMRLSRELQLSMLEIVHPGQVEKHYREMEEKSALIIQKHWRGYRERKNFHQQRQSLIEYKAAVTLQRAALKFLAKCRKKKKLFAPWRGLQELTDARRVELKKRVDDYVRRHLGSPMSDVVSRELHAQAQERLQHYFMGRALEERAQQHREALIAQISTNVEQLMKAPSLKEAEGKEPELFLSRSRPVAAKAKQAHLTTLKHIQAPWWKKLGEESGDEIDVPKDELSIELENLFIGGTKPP", "UniProt Q16621": "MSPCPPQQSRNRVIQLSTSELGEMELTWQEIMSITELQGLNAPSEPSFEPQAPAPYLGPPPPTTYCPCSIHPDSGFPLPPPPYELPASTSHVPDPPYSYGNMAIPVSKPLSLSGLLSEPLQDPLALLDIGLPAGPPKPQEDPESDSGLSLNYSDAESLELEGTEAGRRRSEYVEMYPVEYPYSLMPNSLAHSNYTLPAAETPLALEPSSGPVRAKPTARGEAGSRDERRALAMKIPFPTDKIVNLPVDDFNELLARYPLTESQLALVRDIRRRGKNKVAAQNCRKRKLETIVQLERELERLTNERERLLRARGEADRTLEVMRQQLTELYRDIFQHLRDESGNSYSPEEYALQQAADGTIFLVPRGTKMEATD", "UniProt Q15843, whole entry": "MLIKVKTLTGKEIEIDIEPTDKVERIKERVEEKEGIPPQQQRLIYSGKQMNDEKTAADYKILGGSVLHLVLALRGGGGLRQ", "UniProt Q3B726, whole entry": "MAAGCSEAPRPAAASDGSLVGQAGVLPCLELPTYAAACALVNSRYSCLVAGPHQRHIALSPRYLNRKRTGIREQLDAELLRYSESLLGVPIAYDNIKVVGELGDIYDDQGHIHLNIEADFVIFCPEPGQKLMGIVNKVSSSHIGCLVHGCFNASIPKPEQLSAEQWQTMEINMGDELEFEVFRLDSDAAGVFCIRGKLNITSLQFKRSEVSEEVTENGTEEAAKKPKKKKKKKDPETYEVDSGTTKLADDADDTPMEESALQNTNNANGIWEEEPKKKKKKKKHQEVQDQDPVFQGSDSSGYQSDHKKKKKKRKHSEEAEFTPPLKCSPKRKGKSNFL", "UniProt Q15648, whole entry": "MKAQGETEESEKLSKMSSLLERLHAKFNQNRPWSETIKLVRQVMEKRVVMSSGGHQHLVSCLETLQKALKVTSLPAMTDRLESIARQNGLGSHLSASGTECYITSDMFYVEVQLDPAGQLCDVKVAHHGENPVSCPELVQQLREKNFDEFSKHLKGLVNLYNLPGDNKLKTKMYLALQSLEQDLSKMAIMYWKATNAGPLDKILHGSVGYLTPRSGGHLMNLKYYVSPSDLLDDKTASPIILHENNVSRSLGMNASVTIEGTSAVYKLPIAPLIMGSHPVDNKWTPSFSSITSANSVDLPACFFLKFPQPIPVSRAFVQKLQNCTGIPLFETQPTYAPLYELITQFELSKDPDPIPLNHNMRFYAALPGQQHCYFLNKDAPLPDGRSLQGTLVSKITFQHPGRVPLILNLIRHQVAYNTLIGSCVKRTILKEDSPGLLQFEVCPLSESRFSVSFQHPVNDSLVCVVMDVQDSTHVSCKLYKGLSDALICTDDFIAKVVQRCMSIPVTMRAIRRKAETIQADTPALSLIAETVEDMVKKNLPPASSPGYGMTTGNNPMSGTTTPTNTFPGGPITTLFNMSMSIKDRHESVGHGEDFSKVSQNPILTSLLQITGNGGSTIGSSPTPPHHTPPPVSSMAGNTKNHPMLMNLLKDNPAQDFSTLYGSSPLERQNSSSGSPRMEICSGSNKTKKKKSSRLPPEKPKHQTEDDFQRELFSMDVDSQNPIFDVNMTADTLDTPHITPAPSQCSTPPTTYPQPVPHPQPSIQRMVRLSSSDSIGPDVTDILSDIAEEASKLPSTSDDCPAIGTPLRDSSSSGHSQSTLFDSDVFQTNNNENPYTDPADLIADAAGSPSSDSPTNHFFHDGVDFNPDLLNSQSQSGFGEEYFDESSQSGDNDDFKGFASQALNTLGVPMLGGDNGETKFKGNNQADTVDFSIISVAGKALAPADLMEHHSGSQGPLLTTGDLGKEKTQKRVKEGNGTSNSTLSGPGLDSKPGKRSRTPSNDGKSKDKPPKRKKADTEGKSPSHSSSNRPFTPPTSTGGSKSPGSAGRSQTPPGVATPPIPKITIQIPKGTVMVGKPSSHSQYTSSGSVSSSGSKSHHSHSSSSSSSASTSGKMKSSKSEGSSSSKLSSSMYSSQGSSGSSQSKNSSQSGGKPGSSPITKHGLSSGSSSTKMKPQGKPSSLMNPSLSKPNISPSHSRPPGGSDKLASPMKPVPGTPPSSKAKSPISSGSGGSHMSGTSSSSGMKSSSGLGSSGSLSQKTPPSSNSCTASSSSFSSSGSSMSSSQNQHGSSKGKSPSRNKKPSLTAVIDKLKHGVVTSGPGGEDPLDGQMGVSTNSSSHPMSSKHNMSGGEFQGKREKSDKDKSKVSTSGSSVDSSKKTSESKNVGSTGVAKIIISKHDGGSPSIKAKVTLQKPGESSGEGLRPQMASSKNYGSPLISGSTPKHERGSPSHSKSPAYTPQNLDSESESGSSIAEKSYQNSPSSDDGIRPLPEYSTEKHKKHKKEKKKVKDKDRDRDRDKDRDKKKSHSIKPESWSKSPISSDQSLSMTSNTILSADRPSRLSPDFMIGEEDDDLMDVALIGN", "UniProt Q17RN3": "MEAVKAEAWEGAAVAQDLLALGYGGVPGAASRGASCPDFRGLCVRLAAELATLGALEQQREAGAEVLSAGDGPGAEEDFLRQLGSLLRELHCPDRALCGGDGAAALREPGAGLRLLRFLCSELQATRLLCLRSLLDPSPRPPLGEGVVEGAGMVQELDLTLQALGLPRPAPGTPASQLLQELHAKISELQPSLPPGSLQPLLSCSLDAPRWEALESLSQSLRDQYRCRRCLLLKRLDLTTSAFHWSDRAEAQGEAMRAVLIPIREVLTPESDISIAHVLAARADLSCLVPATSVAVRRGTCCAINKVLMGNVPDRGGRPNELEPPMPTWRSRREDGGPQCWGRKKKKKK", "UniProt Q38SD2": "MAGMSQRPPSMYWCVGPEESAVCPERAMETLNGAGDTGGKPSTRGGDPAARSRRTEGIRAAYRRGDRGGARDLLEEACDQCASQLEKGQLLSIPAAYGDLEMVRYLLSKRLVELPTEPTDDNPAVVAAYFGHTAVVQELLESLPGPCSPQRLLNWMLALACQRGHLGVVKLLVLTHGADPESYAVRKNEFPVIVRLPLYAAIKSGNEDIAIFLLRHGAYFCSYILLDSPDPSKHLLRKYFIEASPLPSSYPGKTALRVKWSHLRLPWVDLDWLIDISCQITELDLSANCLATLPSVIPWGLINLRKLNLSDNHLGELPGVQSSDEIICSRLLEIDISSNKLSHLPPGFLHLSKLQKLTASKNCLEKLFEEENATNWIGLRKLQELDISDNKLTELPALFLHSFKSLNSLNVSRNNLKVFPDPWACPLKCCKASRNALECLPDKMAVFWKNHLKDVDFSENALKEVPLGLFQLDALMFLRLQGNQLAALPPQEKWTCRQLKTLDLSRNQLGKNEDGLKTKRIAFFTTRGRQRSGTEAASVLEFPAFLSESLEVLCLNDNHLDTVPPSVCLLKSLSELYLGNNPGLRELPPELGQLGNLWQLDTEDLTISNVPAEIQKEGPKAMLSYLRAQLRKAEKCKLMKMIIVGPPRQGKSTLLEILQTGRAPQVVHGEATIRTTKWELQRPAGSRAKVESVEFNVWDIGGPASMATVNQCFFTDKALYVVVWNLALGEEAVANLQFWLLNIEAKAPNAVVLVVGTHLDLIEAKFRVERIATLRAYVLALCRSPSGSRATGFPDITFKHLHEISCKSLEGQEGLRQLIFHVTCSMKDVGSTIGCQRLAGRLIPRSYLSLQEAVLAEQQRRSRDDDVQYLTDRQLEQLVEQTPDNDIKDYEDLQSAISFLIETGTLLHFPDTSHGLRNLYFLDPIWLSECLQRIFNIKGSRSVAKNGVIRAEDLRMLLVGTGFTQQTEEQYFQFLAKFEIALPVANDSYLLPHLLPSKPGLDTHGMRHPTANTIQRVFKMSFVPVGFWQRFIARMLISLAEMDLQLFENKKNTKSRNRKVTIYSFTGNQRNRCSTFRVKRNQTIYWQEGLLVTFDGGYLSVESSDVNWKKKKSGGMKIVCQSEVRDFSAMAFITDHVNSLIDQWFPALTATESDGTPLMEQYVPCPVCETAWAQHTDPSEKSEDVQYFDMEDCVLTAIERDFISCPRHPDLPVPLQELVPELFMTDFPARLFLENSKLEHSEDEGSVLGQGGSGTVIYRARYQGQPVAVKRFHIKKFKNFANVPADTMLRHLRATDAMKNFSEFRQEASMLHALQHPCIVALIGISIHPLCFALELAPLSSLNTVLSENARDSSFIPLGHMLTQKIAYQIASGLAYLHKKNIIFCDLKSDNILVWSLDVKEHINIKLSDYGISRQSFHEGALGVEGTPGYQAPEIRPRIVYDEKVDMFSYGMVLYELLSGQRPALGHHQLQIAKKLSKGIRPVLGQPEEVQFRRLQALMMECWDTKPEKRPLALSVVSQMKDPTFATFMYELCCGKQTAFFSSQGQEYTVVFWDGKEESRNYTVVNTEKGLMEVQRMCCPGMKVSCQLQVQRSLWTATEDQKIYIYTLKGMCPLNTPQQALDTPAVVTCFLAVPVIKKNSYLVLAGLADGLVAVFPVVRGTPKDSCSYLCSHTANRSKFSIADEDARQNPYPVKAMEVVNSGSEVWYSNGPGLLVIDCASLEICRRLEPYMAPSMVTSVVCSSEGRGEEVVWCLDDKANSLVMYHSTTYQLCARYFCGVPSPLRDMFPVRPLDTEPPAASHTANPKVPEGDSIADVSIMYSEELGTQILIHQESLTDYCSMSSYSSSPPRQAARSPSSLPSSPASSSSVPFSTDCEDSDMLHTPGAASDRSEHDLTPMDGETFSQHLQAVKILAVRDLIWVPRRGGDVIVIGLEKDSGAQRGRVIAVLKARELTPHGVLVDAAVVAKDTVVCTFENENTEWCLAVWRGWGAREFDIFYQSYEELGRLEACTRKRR", "UniProt Q15973": "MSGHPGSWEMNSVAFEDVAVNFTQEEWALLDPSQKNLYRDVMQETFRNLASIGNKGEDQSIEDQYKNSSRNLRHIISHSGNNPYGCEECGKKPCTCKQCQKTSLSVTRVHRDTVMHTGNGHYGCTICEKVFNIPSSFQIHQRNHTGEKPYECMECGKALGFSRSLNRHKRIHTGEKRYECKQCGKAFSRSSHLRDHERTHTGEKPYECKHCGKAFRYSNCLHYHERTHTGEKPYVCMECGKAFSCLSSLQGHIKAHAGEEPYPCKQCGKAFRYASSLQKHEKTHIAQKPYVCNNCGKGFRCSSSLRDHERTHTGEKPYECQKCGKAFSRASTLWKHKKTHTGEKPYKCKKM"}, "source": "the supplement of paper PMC12819154", "about": "“High-throughput peptide-centric local stability assay extends protein–ligand identification to membrane proteins, tissues and bacteria” (Nature Structural & Molecular Biology, 2025)", "note": "The other results are listed elsewhere or left out. Most entries show no effect beyond the scatter of the controls."}
{"compound": "Cc1nc(Nc2ncc(C(=O)Nc3c(C)cccc3Cl)s2)cc(N2CCN(CCO)CC2)n1 [dasatinib]", "test": "log2 fold change of tryptic peptide abundance, ligand vs vehicle (limited proteolysis) (log2 ratio); higher = more trypsin-susceptible (destabilized)", "conditions": "ligand concentration: 5 uM; sample: K562 cleared lysate"}
{"target": "TAF7 (peptide sequence: LTIELHPDGR, peptide start residue: 43) (UniProt Q15545)", "log2 fold change": -0.34}
{"target": "ZNHIT3 (peptide sequence: QLMVNLDQGEDKAK, peptide start residue: 112) (UniProt Q15649)", "log2 fold change": -0.33}
{"target": "CYP51A1 (peptide sequence: YLQDNPASGEK, peptide start residue: 432) (UniProt Q16850)", "log2 fold change": 0.102}
{"target": "ZNF77 (peptide sequence: AYSFSSSLR, peptide start residue: 416) (UniProt Q15935)", "log2 fold change": 0.141}
{"target": "IQCB1 (peptide sequence: HIQAPWWK, peptide start residue: 559) (UniProt Q15051)", "log2 fold change": 0.275}
{"target": "NFE2 (peptide sequence: RKLETIVQLER, peptide start residue: 286) (UniProt Q16621)", "log2 fold change": -0.273}
{"target": "STXBP2 (peptide sequence: RREPIPSLEAIYLLSPTEK, peptide start residue: 64) (UniProt Q15833)", "log2 fold change": -0.249}
{"target": "NEDD8 (peptide sequence: IKERVEEK, peptide start residue: 26) (UniProt Q15843)", "log2 fold change": -0.714}
{"target": "TSR1 (peptide sequence: AKEELIFHCGFRR, peptide start residue: 610) (UniProt Q2NL82)", "log2 fold change": 0.425}
{"target": "MRPL23 (peptide sequence: RGGVPSWFGL, peptide start residue: 144) (UniProt Q16540)", "log2 fold change": -0.586}
{"target": "TWISTNB (peptide sequence: SEVSEEVTENGTEEAAKKPK, peptide start residue: 208) (UniProt Q3B726)", "log2 fold change": 0.263}
{"target": "MYLK (peptide sequence: SASKEELK, peptide start residue: 517) (UniProt Q15746)", "log2 fold change": -0.0736}
{"target": "CSPP1 (peptide sequence: ANEEVGISNLK, peptide start residue: 279) (UniProt Q1MSJ5)", "log2 fold change": -0.306}
{"target": "QSER1 (peptide sequence: IQLYSLYHSLHHYK, peptide start residue: 1666) (UniProt Q2KHR3)", "log2 fold change": -0.7}
{"target": "MED1 (peptide sequence: ILHGSVGYLTPR, peptide start residue: 203) (UniProt Q15648)", "log2 fold change": -0.533}
{"target": "UniProt Q3B7T1 (peptide sequence: QPLCQYR, peptide start residue: 1016)", "log2 fold change": 0.435}
{"target": "SMAD2 (peptide sequence: WPDLHSHHELK, peptide start residue: 134) (UniProt Q15796)", "log2 fold change": -0.14}
{"target": "UniProt Q3MHD2 (peptide sequence: SQAQQPQK, peptide start residue: 182)", "log2 fold change": -0.0441}
{"target": "UBE2V2 (peptide sequence: AVSTGVKVPR, peptide start residue: 2) (UniProt Q15819)", "log2 fold change": 0.0802}
{"target": "NSDHL (peptide sequence: THLTEDTPK, peptide start residue: 16) (UniProt Q15738)", "log2 fold change": 0.0615}
{"target": "PCK2 (peptide sequence: EGALDLSGLR, peptide start residue: 579) (UniProt Q16822)", "log2 fold change": -0.155}
{"target": "FAM98C (peptide sequence: ALCGGDGAAALREPGAGLR, peptide start residue: 96) (UniProt Q17RN3)", "log2 fold change": 0.186}
{"target": "UniProt Q38SD2 (peptide sequence: IYIYTLK, peptide start residue: 1603)", "log2 fold change": 0.042}
{"target": "TPD52L1 (peptide sequence: VETTVTSLK, peptide start residue: 154) (UniProt Q16890)", "log2 fold change": 0.1}
{"target": "ZRSR2 (peptide sequence: LKEQWEEQQR, peptide start residue: 107) (UniProt Q15696)", "log2 fold change": 0.434}
{"target": "UniProt Q15365 (peptide sequence: QGANINEIRQMSGAQIK, peptide start residue: 298)", "log2 fold change": 0.331}
{"target": "UniProt Q15973 (peptide sequence: GEDQSIEDQYK, peptide start residue: 56)", "log2 fold change": 0.618}
{"target": "ACAP2 (peptide sequence: AQLQNFVKEDLRK, peptide start residue: 107) (UniProt Q15057)", "log2 fold change": 0.471}
{"target": "JMJD1C (peptide sequence: SSPSPEVVKPK, peptide start residue: 638) (UniProt Q15652)", "log2 fold change": -0.148}
